Series [1] concerns the target hSSRP1-HMG520-616 (Homo sapiens) (UniProt Q08945). The series can be described thus: SEC. The conditions noted are these: dsDNA sequence not restated for SEC; single-molecule: 10 mM Tris, 20 mM EDTA, 25 mM KCl, 0.2 mg/l BSA, 10 mM MgCl2; recombinant protein; residues 520-616; protein details: GST or His-SUMO fusion vector, GST cleaved; label: 5'-FAM on strand 1.
The target of series [2] is hSSRP1-HMG546-616 (Homo sapiens) (UniProt Q08945). The series can be described thus: SEC. The conditions noted are these: dsDNA sequence not restated for SEC; single-molecule: 10 mM Tris, 20 mM EDTA, 25 mM KCl, 0.2 mg/l BSA, 10 mM MgCl2; recombinant protein; residues 546-616; protein details: GST or His-SUMO fusion vector, GST cleaved; label: 5'-FAM on strand 1.
The next series addresses T1, NHP6A1-93 (UniProt P11632).
T1 sequence (looked up): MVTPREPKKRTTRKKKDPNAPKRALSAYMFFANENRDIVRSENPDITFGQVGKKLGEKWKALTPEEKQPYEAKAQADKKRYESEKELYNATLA
The series can be described thus: EMSA. The conditions noted are these: positive control; EMSA: 5 uM DNA, 137 mM NaCl, 2.7 mM KCl, 10 mM Na2HPO4, 2 mM KH2PO4 pH 7.4, 30 min on ice, 12% native PAGE; recombinant protein; residues …; protein details: pET28a; label: 5'-FAM on strand 1. (In general: In EMSA bound probe runs differently from free probe, usually more slowly.)

Chains of the proteins cited; added tags and fusions are not shown. Residues count along the entry.
UniProt Q08945, 520-616: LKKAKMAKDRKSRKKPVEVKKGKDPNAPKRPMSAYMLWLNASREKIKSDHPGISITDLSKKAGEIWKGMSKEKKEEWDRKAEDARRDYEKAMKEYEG
UniProt Q08945, 546-616: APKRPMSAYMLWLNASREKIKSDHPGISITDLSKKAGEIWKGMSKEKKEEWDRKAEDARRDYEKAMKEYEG

In a further series the target is T2, NHP6A26-93 (UniProt P11632).
T2 sequence (looked up): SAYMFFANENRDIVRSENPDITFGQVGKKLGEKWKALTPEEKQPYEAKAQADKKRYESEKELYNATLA
The series can be described thus: EMSA. The conditions noted are these: N-terminal deletion affects binding; EMSA: 5 uM DNA, 137 mM NaCl, 2.7 mM KCl, 10 mM Na2HPO4, 2 mM KH2PO4 pH 7.4, 30 min on ice, 12% native PAGE; recombinant protein; residues 26-93; protein details: pET28a; label: 5'-FAM on strand 1.

For some of these results: Negatives hold for the conditions tested. At least one verdict rests on a figure or table, not on a statement of the authors. For some of these results: Construct, isoform or probe ends are uncertain for at least one entry. For some of these results: A weaker result is weaker than the reference pair of the same experiment. For some of these results: Where a protein sequence is shown, tags need not be part of it.

“GGGGTGATTGTTCAG (double strand) [15 bp FAM GT-rich dsDNA]”: the binding result is listed as “binds” in series [1], “no binding” in series [2], “binds” in the series with NHP6A1-93 and “binds more weakly” with NHP6A26-93.

(Values after paper PMC8639466.)
